# Some of the results follow.
# B1: GST-Gap1 (Streptococcus parasanguinis), A1C3L5 (protein)
# chain: MFYFVPSWYNGQRQWYYDTPWWFRVKNRMTFDDSVNQVKMFLQGQEEIGLMILNYQPQLRYFLHKQNIFGIYYWSFFDDIQNITRSYTKIIHLKDLNWPEGCEFLYSPFAVVVRLKGEIFAIVNYAEDGNLHSVSFQKNGKVTKDYIFDDRGFLSSILYYDIDERPLYQDYLNINGVWQVREFLKKENDPTPILMINDFSDQTFSKKYYNGWEELIKERLAIFQNNHVENEDVFVLASDTQHNQLVSSIFKEHRKIYSFFGNRFNLENLGQDRISINDATFLVVDTEKNEELLRKTCENLVFKSIPIVRLSPFDSRLRLGHSQTVKEQIIYFHIDNIELDELYSVIAIILELMTLHLDIELRIVTFRQDFQLDLLKTWIIDFIKTNHFEDLLFKQISEGENEIEDEGEIELSRIAMECFTNENQIIKCLDTARLVIDLGIEPDLYTQIASISAGIPQINRVSSDYVIHQKNGLVISDISKLSSAIEFYFDGLFNWNEALIYAVRKMSDYTSGKILKQWKGMLKKK
# Assays:
# Assay in all cases: glycan array binding signal (z-score within array); higher = stronger binding
# Settings in all cases: glycan notation: IUPAC condensed, linker removed
# Gal6S(b1-4)Glc = target: Gal6S(b1-4)Glc
# Method in brief: (§1)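 The binding signal is a Z-score computed within each array. Data were drawn from 3228 arrays in the Consortium for Functional Glycomics database, restricted to those with a known protein sequence. Scores were averaged over arrays of the same protein sequence at different concentrations or buffers, and over linkers, and negative values can be taken as non-binding.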
# Gal6S(b1-4)Glc6S = target: Gal6S(b1-4)Glc6S
# Method in brief: as §1
# Gal6S(b1-4)GlcNAc = target: Gal6S(b1-4)GlcNAc
# Method in brief: as §1
# Gal6S(b1-4)GlcNAc6S = target: Gal6S(b1-4)GlcNAc6S
# Method in brief: as §1
# GalNAc(a1-3)Gal = target: GalNAc(a1-3)Gal
# Method in brief: as §1
# GalNAc(a1-3)GalNAc = target: GalNAc(a1-3)GalNAc
# Method in brief: as §1
# [1] = target: GalNAc(a1-3)GalNAc(a1-3)Gal(a1-4)Gal(b1-4)GlcNAc
# Method in brief: as §1
# [2] = target: GalNAc(a1-3)GalNAc(b1-3)Gal(a1-4)Gal(b1-4)Glc
# Method in brief: as §1
# [3] = target: GalNAc(a1-3)GalNAc(b1-3)Gal(a1-4)Gal(b1-4)GlcNAc
# Method in brief: as §1
# GalNAc(b1-3)Gal = target: GalNAc(b1-3)Gal
# Method in brief: as §1
# [4] = target: GalNAc(b1-3)Gal(a1-4)Gal(b1-4)GlcNAc
# Method in brief: as §1
# [5] = target: GalNAc(b1-3)Gal(a1-4)Gal(b1-4)GlcNAc(b1-3)Gal(b1-4)Glc
# Method in brief: as §1
# [6] = target: GalNAc(b1-3)Gal(a1-6)Gal(b1-4)Glc
# Method in brief: as §1
# GalNAc(b1-3)GalNAc = target: GalNAc(b1-3)GalNAc
# Method in brief: as §1
# GalNAc(b1-3)GlcNAc = target: GalNAc(b1-3)GlcNAc
# Method in brief: as §1
# GalNAc(b1-4)Gal(b1-4)Glc = target: GalNAc(b1-4)Gal(b1-4)Glc
# Method in brief: as §1
# GalNAc(b1-4)GlcNAc = target: GalNAc(b1-4)GlcNAc
# Method in brief: as §1
# [7] = target: GalNAc(b1-4)GlcNAc(b1-2)Man
# Method in brief: as §1
# [8] = target: GalNAc(b1-4)GlcNAc(b1-2)Man(a1-3)[GalNAc(b1-4)GlcNAc(b1-2)Man(a1-6)]Man(b1-4)GlcNAc(b1-4)GlcNAc
# Method in brief: as §1
# [9] = target: GalNAc(b1-4)GlcNAc(b1-3)GalNAc(b1-4)GlcNAc
# Method in brief: as §1
# GalNAc(b1-4)GlcNAc6S = target: GalNAc(b1-4)GlcNAc6S
# Method in brief: as §1
# GalNAc(b1-6)GalNAc = target: GalNAc(b1-6)GalNAc
# Method in brief: as §1
# GalNAc3S(b1-4)GlcNAc = target: GalNAc3S(b1-4)GlcNAc
# Method in brief: as §1
# GalNAc3S(b1-4)GlcNAc3S = target: GalNAc3S(b1-4)GlcNAc3S
# Method in brief: as §1
# [10] = target: GalNAc3S(b1-4)[Fuc(a1-3)]GlcNAc
# Method in brief: as §1
# GalNAc4S6S(b1-4)GlcNAc = target: GalNAc4S6S(b1-4)GlcNAc
# Method in brief: as §1
# GalNAc6S(b1-4)GlcNAc = target: GalNAc6S(b1-4)GlcNAc
# Method in brief: as §1
# Glc(a1-4)Glc = target: Glc(a1-4)Glc
# Method in brief: as §1
# [11] = target: Glc(a1-4)Glc(a1-4)Glc(a1-4)Glc
# Method in brief: as §1
# Glc(a1-6)Glc(a1-6)Glc = target: Glc(a1-6)Glc(a1-6)Glc
# Method in brief: as §1
# [12] = target: Glc(a1-6)Glc(a1-6)Glc(a1-6)Glc
# Method in brief: as §1
# Glc(b1-4)Glc = target: Glc(b1-4)Glc
# Method in brief: as §1
# Glc(b1-6)Glc = target: Glc(b1-6)Glc
# Method in brief: as §1
# GlcA(b1-3)Gal = target: GlcA(b1-3)Gal
# Method in brief: as §1
# GlcA(b1-3)GlcNAc = target: GlcA(b1-3)GlcNAc
# Method in brief: as §1
# GlcA(b1-6)Gal = target: GlcA(b1-6)Gal
# Method in brief: as §1
# [13] = target: GlcA3S(b1-3)Gal(b1-4)GlcNAc(b1-2)Man
# Method in brief: as §1
binder,measurement,setting,value
B1,glycan array binding signal (z-score),Gal6S(b1-4)Glc,0.047
same,glycan array binding signal (z-score),Gal6S(b1-4)Glc6S,0.653
same,glycan array binding signal (z-score),Gal6S(b1-4)GlcNAc,-0.065
same,glycan array binding signal (z-score),Gal6S(b1-4)GlcNAc6S,-0.247
same,glycan array binding signal (z-score),GalNAc(a1-3)Gal,-0.282
same,glycan array binding signal (z-score),GalNAc(a1-3)GalNAc,-0.202
same,glycan array binding signal (z-score),[1],-0.419
same,glycan array binding signal (z-score),[2],-0.206
same,glycan array binding signal (z-score),[3],0.773
same,glycan array binding signal (z-score),GalNAc(b1-3)Gal,0.1
same,glycan array binding signal (z-score),[4],0.159
same,glycan array binding signal (z-score),[5],-0.326
same,glycan array binding signal (z-score),[6],-0.325
same,glycan array binding signal (z-score),GalNAc(b1-3)GalNAc,0.329
same,glycan array binding signal (z-score),GalNAc(b1-3)GlcNAc,-0.376
same,glycan array binding signal (z-score),GalNAc(b1-4)Gal(b1-4)Glc,-0.47
same,glycan array binding signal (z-score),GalNAc(b1-4)GlcNAc,-0.452
same,glycan array binding signal (z-score),[7],-1.49
same,glycan array binding signal (z-score),[8],0.064
same,glycan array binding signal (z-score),[9],0.073
same,glycan array binding signal (z-score),GalNAc(b1-4)GlcNAc6S,-0.018
same,glycan array binding signal (z-score),GalNAc(b1-6)GalNAc,-0.113
same,glycan array binding signal (z-score),GalNAc3S(b1-4)GlcNAc,-0.643
same,glycan array binding signal (z-score),GalNAc3S(b1-4)GlcNAc3S,-0.242
same,glycan array binding signal (z-score),[10],-1.08
same,glycan array binding signal (z-score),GalNAc4S6S(b1-4)GlcNAc,-0.515
same,glycan array binding signal (z-score),GalNAc6S(b1-4)GlcNAc,-0.204
same,glycan array binding signal (z-score),Glc(a1-4)Glc,-0.016
same,glycan array binding signal (z-score),[11],-0.696
same,glycan array binding signal (z-score),Glc(a1-6)Glc(a1-6)Glc,-0.544
same,glycan array binding signal (z-score),[12],0.133
same,glycan array binding signal (z-score),Glc(b1-4)Glc,0.202
same,glycan array binding signal (z-score),Glc(b1-6)Glc,-0.956
same,glycan array binding signal (z-score),GlcA(b1-3)Gal,0.519
same,glycan array binding signal (z-score),GlcA(b1-3)GlcNAc,5.69
same,glycan array binding signal (z-score),GlcA(b1-6)Gal,-0.482
same,glycan array binding signal (z-score),[13],0.188

# Random excerpt: 2 records from the list.
binder,measurement,setting,value
B1,glycan array binding signal (z-score),GalNAc(b1-4)Gal(b1-4)Glc,-0.47
same,glycan array binding signal (z-score),GlcA(b1-3)Gal,0.519

# Source: the supplement of paper PMC8728848
